Results from paper doi:10.1101/2021.02.21.431301.
No constants are given. Whether binding was seen depends on the method and setting. Binding seen in cells or lysates may run through a third protein. Tags and fused reporters may be left off the sequences shown.

Columns and labels:
Experiment in all cases: co-IP
[1] = molecular target: GFP-MdDAM1, full length (N. benthamiana) (apple (Malus x domestica))
[2] = molecular target: GFP-MdDAMb, full length (N. benthamiana) (apple (Malus x domestica))
[3] = molecular target: GFP-MdFLC, full length (N. benthamiana) (apple (Malus x domestica))

Measured: binding

B1: AtHB33-MyC (5xMyC-AtHB33) (protein, UniProt Q9FRL5 1-309)
chain: MDMRSHEMIERRREDNGNNNGGVVISNIISTNIDDNCNGNNNNTRVSCNSQTLDHHQSKSPSSFSISAAAKPTVRYRECLKNHAASVGGSVHDGCGEFMPSGEEGTIEALRCAACDCHRNFHRKEMDGVGSSDLISHHRHHHYHHNQYGGGGGRRPPPPNMMLNPLMLPPPPNYQPIHHHKYGMSPPGGGGMVTPMSVAYGGGGGGAESSSEDLNLYGQSSGEGAGAAAGQMAFSMSSSKKRFRTKFTTDQKERMMDFAEKLGWRMNKQDEEELKRFCGEIGVKRQVFKVWMHNNKNNAKKPPTPTTTL
no binding: all assays above
